These results are taken from patent publication US20210246189A1.

Amino acid sequences for entries named in this document (tags omitted). Residues count along the entry.
UniProt P15391, residues 20-556: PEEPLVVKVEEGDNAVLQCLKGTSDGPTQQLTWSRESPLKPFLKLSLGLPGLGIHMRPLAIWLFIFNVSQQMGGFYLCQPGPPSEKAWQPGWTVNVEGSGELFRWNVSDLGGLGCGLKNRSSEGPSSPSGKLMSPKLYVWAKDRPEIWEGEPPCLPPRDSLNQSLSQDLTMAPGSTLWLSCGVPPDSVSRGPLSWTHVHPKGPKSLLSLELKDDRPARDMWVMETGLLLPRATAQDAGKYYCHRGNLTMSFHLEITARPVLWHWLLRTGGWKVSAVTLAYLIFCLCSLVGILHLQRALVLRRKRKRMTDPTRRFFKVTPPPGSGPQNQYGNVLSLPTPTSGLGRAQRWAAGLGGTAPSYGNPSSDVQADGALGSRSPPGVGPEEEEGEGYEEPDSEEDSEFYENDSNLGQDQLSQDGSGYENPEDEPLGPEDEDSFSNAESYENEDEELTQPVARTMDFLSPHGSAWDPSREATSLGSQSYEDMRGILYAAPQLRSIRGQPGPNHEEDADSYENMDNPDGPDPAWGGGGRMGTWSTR

Results are given in words; binding and its absence hold for the method and conditions named. Some binding calls cover weakened binding; strength is not graded here. Tags and fused reporters may be left off the sequences shown.

The target of test [1] is CD19 expressed on the surface of living B cells (UniProt P15391). Kind of test: flow cytometry koff-rate measurement on CD20 positive B cells, after D-biotin. (In flow cytometry, cells or beads pass a laser one at a time.)
Test [2] shares this target. Description: flow cytometry koff-rate measurement on living B cells among PBMCs, after D-biotin.

B1: extracellular domain (ECD) of an αCD19 CAR with Strep- and Tub-tag, fluorescently labeled (protein)
chain: DIVMTQAAPSIPVTPGESVSISCRSSKSLLNSNGNTYLYWFLQRPGQSPQLLIYRMSNLASGVPDRFSGSGSGTAFTLRISRVEAEDVGVYYCMQHLEYPFTFGAGTKLELKGSTSGSGKPGSGEGSTKGEVQLQQSGPELIKPGASVKMSCKASGYTFTSYVMHWVKQKPGQGLEWIGYINPYNDGTKYNEKFKGKATLTSDKSSSTAYMELSSLTSEDSAVYYCARGTYYYGSRVFDYWGQGTTLTVSSWSHPQFEKGGGSGGGSGGSSAWSHPQFEKVDSVEGEGEEEGEE
As for B1, the binding entry in test [1] and in test [2] was “binds” in each case.
